Reference: PubChem BioAssay AID493246 (Drosophila RNAi Screening Center, 2011)
Screen: 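Genes fly cells need to grow and stay alive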 (primary screen). System: Drosophila Kc and S2R+ cells. Reagent: long dsRNA against Drosophila genes. Measurement: 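Cell number per well after knock-down, printed as raw plate values; calls were based on per-plate z-scores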. Scale: Kc cell number and S2R+ cell number: higher = more cells remaining. Rule for the call: 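Active when the per-plate z-score of cell number is 3 or more in the direction of fewer cells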.
In all, the deposit lists about 21,000 reagents; shown is a random part of those with a known target gene and a result. Over the whole deposit, 429 (2%) are marked active. 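Values are raw and not normalised between plates; calls rest on per-plate z-scores that were not deposited.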 Names joined by + are all predicted targets of the reagent. Reagent sequences are not shown. Not stated in the record: the amount of reagent, the time to read-out.

no.	gene	DRSC id	Kc cell number, rep 1	Kc cell number, rep 2	S2R+ cell number, rep 1	S2R+ cell number, rep 2	activity call
1	CG7728	DRSC10907	1.45e6	1.58e6	1.14e6	1.19e6	inactive
2	Mzt1	DRSC07979	1.45e6	1.42e6	9.96e5	1.15e6	inactive
3	CG13024	DRSC09904	1.38e6	1.45e6	1.29e6	1.39e6	inactive
4	RasGAP1	DRSC11172	1.25e6	1.28e6	1.34e6	1.44e6	inactive
5	CG31998	DRSC17137	5.19e5		7.90e5		inactive
6	CG31998	DRSC17138	1.47e6	1.44e6	1.01e6	1.11e6	inactive
7	CG8519	DRSC10985	1.52e6	1.69e6	1.11e6	1.14e6	inactive
8	ScsbetaA	DRSC14446	1.41e6	1.48e6	1.25e6	1.29e6	inactive
9	CG7950 + Rpp14a	DRSC16353	4.74e5		7.10e5		inactive
10	CG14100	DRSC10101	1.24e6	1.26e6	1.24e6	1.34e6	inactive
11	CG32726	DRSC17521	1.18e6	1.42e6	1.06e6	1.09e6	inactive
12	CG8664	DRSC20116	1.56e6	1.53e6	1.23e6	1.32e6	inactive
13	Tsen54	DRSC10527	1.47e6	1.52e6	1.41e6	1.45e6	inactive
14	CG32576 + UQCR-14	DRSC19870	1.26e6	1.24e6	1.08e6	1.15e6	inactive

Sorted by “S2R+ cell number, rep 1” (low to high): some entries from above.
gene	DRSC id	Kc cell number, rep 1	Kc cell number, rep 2	S2R+ cell number, rep 1	S2R+ cell number, rep 2	activity call
CG7950 + Rpp14a	DRSC16353	4.74e5		7.10e5		inactive
CG14100	DRSC10101	1.24e6	1.26e6	1.24e6	1.34e6	inactive

Further results follow:
no.	gene	DRSC id	Kc cell number, rep 1	Kc cell number, rep 2	S2R+ cell number, rep 1	S2R+ cell number, rep 2	activity call
15	PVRAP	DRSC09966	1.67e6	1.62e6	1.12e6	1.13e6	inactive
16	PVRAP	DRSC10577	1.67e6	1.69e6	1.18e6	1.27e6	inactive
17	FarO	DRSC18475	1.58e6	1.58e6	1.11e6	1.27e6	inactive
18	vsg	DRSC10219	1.38e6	1.28e6	1.22e6	1.27e6	inactive
19	Spc105R	DRSC11663	1.30e6	1.34e6	7.53e5	8.50e5	active
20	CG5646	DRSC15853	4.99e5		7.99e5		inactive
21	CG10505	DRSC04075	1.58e6	1.66e6	1.27e6	3.08e5	inactive
22	Bhmt	DRSC02079	1.48e6	1.55e6	1.20e6	3.14e5	inactive
23	Twdlbeta	DRSC07310	1.67e6	1.76e6	1.41e6	1.58e6	inactive
24	Cyp4ac2	DRSC03303	1.69e6	1.58e6	1.24e6	1.42e6	inactive
